# Experimental data published in PubChem BioAssay AID1347423 (Functional Genomics Laboratory (NCATS/FGL), 2020).
# About 210 (0.4%) of roughly 52,000 sequences were called active.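 How the source made its calls: active means gene whose silencing raises cell survival under the drug, median off-target-corrected z-score across its silencing RNAs 2 or more; inactive means the rest.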 This is one part of the list.
# Assay: Resistance to Poly (ADP-Ribose) Polymerase inhibitor: Gene Identification via Genome-wide siRNA Screen
# Details: mouse BRCA2 R2336H ES cells, olaparib, CellTiter-Glo viability; active compounds read high
# Outline: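 Mouse BRCA2 R2336H ES cells were reverse-transfected with siRNA (20 nM final), treated at 48 h with 500 nM olaparib, and read by CellTiter-Glo after 72 h. Scores: MAD-based z per siRNA, median per gene, seed off-target correction.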
row,Sequence,z-score
1,CGGAGUGAAACUACUCAUUTT against Ckb,inactive: 0.411
2,GCUUACAGAUCAACUGAAGTT against Chst9,inactive: -0.614
3,GGGCAAUUCCAUGAAGCUGTT against Scn3b,inactive: 2.09
4,GCAAUGGACCCAACUCAAGTT against 2810032G03Rik,inactive: 0.773
5,GGGCAAACAUUAUAAAUUGTT against Prlpc2,inactive: 1.64
6,GGAGAACACCAUCAGGUUUTT against Tnfrsf14,inactive: -1.81
7,GCUCAUUCGUCCUCACAGUTT against Olfr312,inactive: 0.408
8,GCGAGUGCUAACAUGAAAGTT against Sara1,inactive: -0.143
9,GGAAACAAUACACCAAAUGTT against B630005N14Rik,inactive: -0.0892
10,CCAAGUUACAGGAACAAGUTT against Olfr1504,inactive: -0.887
11,GCUGAUAGACUCACAGAGGTT against Midn,inactive: 0.755
12,GGGAAUCUGGAGUGUCUGATT against Uaca,inactive: 1.13
13,GCACUGAUGACGUGCAGAUTT against Rps5,inactive: -3.23
14,GGCACAAGCAGGAGAUAAATT against Serpinb2,inactive: -0.628
15,GGUAGGACUAACAAUAAAATT against Gpr4,inactive: 0.144
16,GAACAGCAGAAUCUCGGCUTT against Cacng6,inactive: 2.9
17,CCAUCAUUUAUGAAGACCCTT against Wdr68,inactive: -0.231
18,GGCUCCUACCAAUCUCACUTT against Calcr,inactive: 0.374
19,GGCCUGAAGCAGCUUAUCUTT against Chad,inactive: 0.508
20,CCAUAACGUAAGGCAUAUATT against Ghsr,inactive: -1.15
21,UUGCCUCUUCCUACGCCUUTT against Lass1,inactive: -2.37
22,CCCUUUAGAGGAAGUGAUATT against Gatm,inactive: -0.34
23,GGCAGAAGUGGAAAAACAATT against 4930403O06Rik,inactive: -1.56
24,GGUUUGGAGGGACGCAAUATT against 2900005J15Rik,inactive: -1.49
25,CCAUCUAUCAACUUCUACATT against Sat1,inactive: 1.09
26,GCCACAAUGCUAGAAGAGATT against Apex2,inactive: -0.349
27,GGACCUAGACGAUGUCAUGTT against Lrrc4b,inactive: 1.9

row,Sequence,z-score
1,GGAAGAAGCCUUUCAGCAUTT against Cenpa,inactive: -0.274
2,AGUGCGACAAGGAGGUGUATT against Crip1,inactive: -0.837
3,GGAAGAAUUACAAAGGAUATT against Cnot4,inactive: 0.658
4,GGAUCUUGGGUUGAUAUUUTT against Acsl4,inactive: -1.88
5,CGUUCUACAACAAAUGGCUTT against Slc35c2,inactive: 0.549
6,GCCUUUACCCAAAUUAUCATT against Defb4,inactive: 0.42
7,GGCAGGUGUGGCUUUCUUCTT against Gpsm1,inactive: 1.01
8,GGAACUUAUCCUUCAUGGATT against Olfr714,inactive: 0.467
9,GAAACUAUGGCUGAAAAUGTT against Klk6,inactive: -0.0594
10,GCCUUACAAUUUGUUCUACTT against Dsc1,inactive: 1.9
11,GCCUUUCUCAUUAGUCUCUTT against V1rb9,inactive: 1.16
12,GGUCAAAACCAUCUACCGCTT against Rab3a,inactive: 0.000379
13,GGUAACUCCAUACUAUAAUTT against Pcdhb4,inactive: -0.186
14,GGAGGAUUAGAACGGACCUTT against Nol5a,inactive: -0.363
15,GCCAUUGGUACCAUAACAUTT against Tekt3,inactive: -0.64
16,GGCCGUCACUGCCAAUAGUTT against D330014H01Rik,inactive: 0.787
17,GCUACUUAAAUACAUCCGCTT against Pdpk1,inactive: -0.00261
18,GGAGCCUUUACCAUUGACUTT against Osmr,inactive: -0.827
19,GGAAAAGAAGUUUAAACGGTT against Svs6,inactive: 0.979
20,CCCGAUUAUCUAGUGAUACTT against Sbk,inactive: -0.0364
21,GGAUGUCAUCGAGGAAUACTT against Rps12,inactive: -2.66
22,GGAUGGCAUAGUUCUUGGATT against Psmb7,inactive: -3.43
23,GGAAUCCUUUUCUUUCUAATT against Slc13a1,inactive: -1.87
24,GGAAAACUUUAGCUACAAATT against 8430415E04Rik,inactive: 0.821
25,GGAGCUAAGACAGUUUGGATT against BC022133,inactive: -1.16
26,GGGCUGACUACCUUGUCAUTT against Mad2l2,inactive: -0.798
27,GGUUCUUAUCACUUGCUGUTT against Arf6,inactive: 2.83

# Looked up above.
# z-score, GGAGGAUUAGAACGGACCUTT against Nol5a is entered as inactive: -0.363
# z-score, GGGCUGACUACCUUGUCAUTT against Mad2l2 is entered as inactive: -0.798
# z-score, GGAAUCCUUUUCUUUCUAATT against Slc13a1 is entered as inactive: -1.87

# Following part:

row,Sequence,z-score
1,CCAAAGAGCGCAUGGCUCATT against Epn2,inactive: 0.235
2,GGUCAUCUCAGUACUACAATT against Dgat2,inactive: -1.18
3,GCUCUGUCUUCAGGUCAUUTT against Olfr1040,inactive: -1.7
4,CGAGGUAAACAGUUUCGUUTT against BC051142,inactive: 0.568
5,GAAGAGCGGGUGUUGCUAATT against E130113K08Rik,inactive: -1.65
6,CCUCCAGUACCAACAUUAGTT against Olfr299,inactive: 0.407
7,GGCAAGAAACAGGAGAAGATT against Ptn,inactive: -0.789
8,GGAUUCUCUAAUAAAGCGUTT against Pof1b,inactive: 0.894
9,GGUUUUAGAAGGGAAACAUTT against Ppp2r2c,inactive: -0.761
10,GGUUAAGCAGAAAUUAAGATT against D3Ertd300e,inactive: -0.0197
11,GGAUCAAGCAGAAAGGAGATT against Otc,inactive: 0.0892
12,GGUAGUGACGAAAAAUAACTT against Pigt,inactive: 1
13,GCUGAGGCAAUUUCAACUUTT against Ctla4,inactive: 0.608
14,GGAGGACUUUGGAUUUAAGTT against Prim1,inactive: 1.09
15,GGCAAGUCCAUGGUCAUGUTT against 1500002O20Rik,inactive: -0.871
16,UUAGCCGAAAGGGCUUAACTT against Olfr1032,inactive: 0.496
17,GCUUGUGUUUUAGAGCCGCTT against Mat1a,inactive: -0.355
18,GAAUGUAUGGUGAUCAAAGTT against Pip,inactive: 1.17
19,GCUUGUUGCCUAGGACCUATT against 2010003J03Rik,inactive: -1.48
20,GGACCUGUUGAUAUUGGCCTT against Atp5j,inactive: 0.146
21,GCUAAUAUAGAGUAUCUGUTT against D230005D02Rik,inactive: 0.758
22,GGAGAUCGACCUGUCUAUGTT against D030051D21,inactive: -1.44
23,GGUCCUAAAUGCUCAGAAGTT against Rnf167,inactive: 1.03
24,GGAUUCGGAAAUAUUGCCATT against Fgb,inactive: -2.03
25,GGAGGUACCACAAAAGGCATT against Kif2c,inactive: -0.582
26,GCAUGACCUCAGGUUUUCUTT against Fndc6,inactive: 0.775
27,GGUGAAACUGAGAAUCAUGTT against Mcpt4,inactive: 0.517

row,Sequence,z-score
1,GGCCUUUCUUUUGUAAUUUTT against Zfp57,inactive: 0.562
2,GCAACCGAAGUAACAUAUATT against RbmY1a1,inactive: -1.77
3,GAAUCGGAGCAGUGUGUCATT against Tff2,inactive: -1.41
4,GGGAUGGACUUAUACCUGUTT against V1rh12,inactive: 0.851
5,CCCUACGAAGUACCAACUUTT against Il18bp,inactive: -2.08
6,GCAAUAAGGUGAAGUCAGATT against Mbd2,inactive: 1.29
7,GGCUUUUGUCAAACAGCAUTT against Ins1,inactive: -0.285
8,GGAACUGGGUUCAUCCACATT against Snrpb2,inactive: -0.975
9,GCUAGAGUCCAUAAACAAUTT against Olfr1148,inactive: -0.417
10,CCUUAUAACUCUUACGUUUTT against Mak3,inactive: -0.589
11,GGAUGGACUUCUGUAUCACTT against Cdh17,inactive: 1.92
12,GGCCAAGGAGAGCAUUCGATT against Vps4a,inactive: 1.19
13,GGUCAUGUACAAGAAAACCTT against AY100450,inactive: 0.95
14,CCGAAGUGGAAUAAAUUGUTT against 4931433A13Rik,inactive: -0.0409
15,GGAAACCUAUGAGAAUAUCTT against Kpnb3,inactive: 0.202
16,GGCAGACAAGGAUUCCUUGTT against Mrpl38,inactive: 0.971
17,GGGCAAAUUCUCAAGAAAATT against 4933431N12Rik,inactive: -0.331
18,GGACUUACCUUUAACCAACTT against Slc30a4,inactive: -0.219
19,GGCAUAUUCUUUUCAACACTT against 1110067L22Rik,inactive: -0.537
20,GGAAACAGCAUCAUCAUGUTT against Snrpg,inactive: -2.11
21,GGGAUGCUCUGAACAUUGATT against Anxa2,inactive: 0.826
22,GUCCUCUUCUGGUUCUCAGTT against V1ra7,inactive: 2.8
23,GGACAACCAAAAUGCAUUUTT against Zic3,inactive: -1.04
24,UGUCUGGAUGUCUAGGUGATT against MGC65558,inactive: -0.603

# Shown as tab-separated lines: entries from further up.
row	Sequence	z-score
21	GGGAUGCUCUGAACAUUGATT against Anxa2	inactive: 0.826
22	GUCCUCUUCUGGUUCUCAGTT against V1ra7	inactive: 2.8
23	GGACAACCAAAAUGCAUUUTT against Zic3	inactive: -1.04
